Test results as given in US7935349.
Results are given in words; binding and its absence hold for the method and conditions named. For some assays here: Binding seen in cells or lysates may run through a third protein. Some entries that bind do so weakly or less than the wild type.

Protein sequences, listed by entry. Tags and fused reporters are not part of them. Lines headed by an entry give the natural chain unless they say otherwise; changes in a name come on top. Chains listed by the source or under a name are the forms on record and can include a tag or linker.
UniProt Q62952: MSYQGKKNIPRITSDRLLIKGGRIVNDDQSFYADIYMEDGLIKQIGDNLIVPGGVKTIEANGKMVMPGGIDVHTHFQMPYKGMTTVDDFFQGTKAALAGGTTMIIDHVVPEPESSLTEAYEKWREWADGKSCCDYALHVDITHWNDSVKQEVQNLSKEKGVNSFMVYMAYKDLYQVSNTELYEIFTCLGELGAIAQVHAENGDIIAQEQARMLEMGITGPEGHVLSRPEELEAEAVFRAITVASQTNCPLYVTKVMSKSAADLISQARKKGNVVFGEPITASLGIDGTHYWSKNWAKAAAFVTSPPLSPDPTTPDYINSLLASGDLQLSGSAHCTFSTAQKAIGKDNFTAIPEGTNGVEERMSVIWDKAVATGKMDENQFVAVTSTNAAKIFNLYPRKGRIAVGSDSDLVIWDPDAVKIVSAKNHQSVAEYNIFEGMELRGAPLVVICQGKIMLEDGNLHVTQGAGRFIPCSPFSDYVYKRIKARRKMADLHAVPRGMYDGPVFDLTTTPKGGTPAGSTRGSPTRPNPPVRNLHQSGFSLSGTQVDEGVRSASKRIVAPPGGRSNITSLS
UniProt P61586: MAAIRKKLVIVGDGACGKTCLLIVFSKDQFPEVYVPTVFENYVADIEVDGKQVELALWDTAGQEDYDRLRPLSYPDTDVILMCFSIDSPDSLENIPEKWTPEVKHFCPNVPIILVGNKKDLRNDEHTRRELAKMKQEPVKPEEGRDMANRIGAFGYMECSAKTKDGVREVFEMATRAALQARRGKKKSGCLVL
FLAG-RhoA63L (P61586, form named): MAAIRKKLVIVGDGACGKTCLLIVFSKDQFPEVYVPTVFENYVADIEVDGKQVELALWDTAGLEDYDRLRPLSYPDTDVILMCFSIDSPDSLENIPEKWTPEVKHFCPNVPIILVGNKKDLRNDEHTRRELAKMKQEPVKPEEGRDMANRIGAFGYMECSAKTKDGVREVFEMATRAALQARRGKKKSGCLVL
myc-RhoAN19 (P61586, form named): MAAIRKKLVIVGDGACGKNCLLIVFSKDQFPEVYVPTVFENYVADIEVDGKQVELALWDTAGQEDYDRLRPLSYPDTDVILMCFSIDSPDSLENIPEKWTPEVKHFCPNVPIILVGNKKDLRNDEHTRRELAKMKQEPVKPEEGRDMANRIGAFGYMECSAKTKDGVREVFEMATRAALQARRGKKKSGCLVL
UniProt P70336: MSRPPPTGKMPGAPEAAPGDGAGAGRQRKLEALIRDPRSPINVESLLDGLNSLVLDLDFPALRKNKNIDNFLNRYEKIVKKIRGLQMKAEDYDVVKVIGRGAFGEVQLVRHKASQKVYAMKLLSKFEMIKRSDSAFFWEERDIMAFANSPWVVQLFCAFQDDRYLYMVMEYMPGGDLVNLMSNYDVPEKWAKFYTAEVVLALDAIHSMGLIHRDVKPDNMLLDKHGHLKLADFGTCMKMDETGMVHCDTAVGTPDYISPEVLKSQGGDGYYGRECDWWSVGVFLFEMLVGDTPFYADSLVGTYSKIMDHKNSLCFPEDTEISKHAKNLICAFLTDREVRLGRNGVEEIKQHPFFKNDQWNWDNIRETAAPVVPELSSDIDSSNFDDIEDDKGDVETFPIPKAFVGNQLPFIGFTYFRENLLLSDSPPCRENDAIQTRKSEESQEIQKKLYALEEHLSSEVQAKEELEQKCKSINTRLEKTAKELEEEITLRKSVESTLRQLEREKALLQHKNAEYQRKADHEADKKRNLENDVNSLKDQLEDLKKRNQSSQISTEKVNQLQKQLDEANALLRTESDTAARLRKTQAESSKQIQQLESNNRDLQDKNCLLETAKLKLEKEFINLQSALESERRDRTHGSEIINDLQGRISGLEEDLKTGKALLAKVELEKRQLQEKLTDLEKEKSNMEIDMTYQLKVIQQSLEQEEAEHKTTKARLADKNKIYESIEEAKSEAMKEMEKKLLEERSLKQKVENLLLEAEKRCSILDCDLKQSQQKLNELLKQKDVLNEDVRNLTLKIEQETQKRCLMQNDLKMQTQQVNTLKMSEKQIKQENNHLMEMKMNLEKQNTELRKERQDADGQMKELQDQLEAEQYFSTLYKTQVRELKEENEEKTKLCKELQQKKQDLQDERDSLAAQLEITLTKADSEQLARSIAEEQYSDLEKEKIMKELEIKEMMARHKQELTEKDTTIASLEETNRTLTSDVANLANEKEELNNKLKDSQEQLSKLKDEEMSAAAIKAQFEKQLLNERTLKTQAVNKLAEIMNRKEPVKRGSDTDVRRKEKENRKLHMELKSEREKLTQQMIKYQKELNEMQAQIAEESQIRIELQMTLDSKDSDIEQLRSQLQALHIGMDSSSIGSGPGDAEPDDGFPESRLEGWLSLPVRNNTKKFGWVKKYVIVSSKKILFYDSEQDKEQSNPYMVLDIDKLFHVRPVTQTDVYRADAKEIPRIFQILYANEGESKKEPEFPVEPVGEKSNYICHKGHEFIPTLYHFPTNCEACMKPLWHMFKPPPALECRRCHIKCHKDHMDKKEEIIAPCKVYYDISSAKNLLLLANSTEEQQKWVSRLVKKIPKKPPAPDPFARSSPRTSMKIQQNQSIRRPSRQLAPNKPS

Experiments:
CRMP4a-V5 (rat) [1] = target: CRMP4a-V5 (rat) (UniProt Q62952); assay: RhoA overlay (far western) on CRMP-V5 immunoprecipitated from 293T cells
CRMP4b-V5 (rat) [2] = assay: as above
CRMP4a-V5 (rat) [3] = target: CRMP4a-V5 (rat) (UniProt Q62952); assay: overlay of V5-immunoprecipitated CRMP-V5 with recombinant RhoA (FIG. 2d)
CRMP4b-V5 (rat) [4] = assay: as above
myc-RhoA63L [5] = target: myc-RhoA63L (UniProt P61586); assay: co-immunoprecipitation, myc-IP from co-transfected HEK293T cells (FIG. 2b)
myc-wild type RhoA [6] = target: myc-wild type RhoA (UniProt P61586); assay: co-immunoprecipitation, myc-IP from co-transfected HEK293T cells (FIG. 2a)
myc-wild type RhoA [7] = target: myc-wild type RhoA (UniProt P61586); assay: co-immunoprecipitation, myc-IP from co-transfected HEK293T cells, anti-V5 blot
myc-wild type RhoA [8] = target: myc-wild type RhoA (UniProt P61586); assay: co-immunoprecipitation from HEK293T cells co-transfected with myc-RhoAWT, CRMP4-V5 and C4RIP-V5
myc-RhoAN19 [9] = target: myc-RhoAN19 (UniProt P61586); assay: co-immunoprecipitation, myc-IP from co-transfected HEK293T cells (FIG. 2c)
myc-wild type RhoA [10] = target: myc-wild type RhoA (UniProt P61586); assay: co-immunoprecipitation, myc-IP from co-transfected PC12 cells stimulated with Nogo-P4 peptide
myc-RhoAN19 [11] = target: myc-RhoAN19 (UniProt P61586); assay: co-immunoprecipitation, myc-IP from co-transfected HEK293T cells
myc-RhoA63L [12] = target: myc-RhoA63L (UniProt P61586); assay: as above
myc-RhoA63L [13] = target: myc-RhoA63L (UniProt P61586); assay: co-immunoprecipitation, myc-IP from HEK293T cells co-transfected with myc-RhoA63L
myc-Rho kinase = myc-Rho kinase (UniProt P70336); assay: co-immunoprecipitation from HEK293T cells co-transfected with FLAG-RhoA63L, myc-ROCK and C4RIP-V5

Measured: binding

recombinant RhoA (bacterially-purified, cleaved from GST) (from UniProt P61586 1-193)
binds: CRMP4a-V5 (rat) [1] | CRMP4b-V5 (rat) [2] | CRMP4a-V5 (rat) [3] | CRMP4b-V5 (rat) [4]

CRMP4a-V5 (from UniProt Q62952 1-570)
binds: myc-RhoA63L [5] | myc-wild type RhoA [6] | myc-wild type RhoA [7] | myc-wild type RhoA [8] | myc-RhoAN19 [9] | myc-wild type RhoA [10] | myc-RhoAN19 [11] | myc-RhoA63L [12]

CRMP4ΔN-V5 (from UniProt Q62952 13-570)
binds: myc-RhoA63L [13]

FLAG-RhoA63L (from UniProt P61586 1-193)
binds: myc-Rho kinase
